{"source": "patent US20100129800A1", "about": "“POLYMERS AND THEIR USE AS FLUORESCENT LABELS” (priority 2007, published 2010)", "test": "UV properties of the new compounds (UV λ max)", "type": "physicochemical", "note": "At least one structure is not confirmed: it was looked up by name or label, or the drawing left a doubt."}
{"smiles": "CC(=O)NCCN(CC(=O)NCCN(CC(=O)NCCCCCCO)C(=O)CNC(=O)c1c2ccccc2nc2ccccc12)C(=O)CNC(=O)c1c2ccccc2nc2ccccc12", "note": "[Example 46]", "values": [{"measurement": "UV (λ, max)", "value": "252, 360"}]}
